Values of other authors in patent US12048763B2, “Compositions and methods for treating sialorrhea” (priority 2021, dated 2024).

Conditions: 1.67 mg atropine intramuscularly to adults by 2 mg AtroPen delivery system

CN1C2CCC1CC(OC(=O)C(CO)c1ccccc1)C2 (racemic) [atropine, 1αH,5αH-tropan-3-ol (±)-tropate (ester)]
mean time to maximum plasma concentration (Tmax): 3 min
peak plasma concentration Cmax (mean±SEM): ~9.6 ± 1.5 ng/mL
